This test concerns P388 leukemia ip, CD2F1 mice, survival T/C. Nature of the test: NCI In Vivo Anticancer Drug Screen. Data for tumor model P388 Leukemia (intraperitoneal) in CD2F1 (CDF1) mice. The following applies: T/C endpoint: median survival time, higher T/C = longer survival.
Setting [1] is: dose: 12.5 mg/kg/injection, schedule: Q04DX003 (ip), vehicle: saline.
The mark [2] stands for this setting: dose: 100.0 mg/kg/injection, schedule: Q01DX009 (ip), vehicle: saline.

The list shows only some results of the screen, not a fair sample: it is rich in T/C values a quarter to a half above the control, in often repeated tests (any T/C) and in doses without a T/C. Other doses and runs of a compound stand elsewhere. T/C: endpoint of the treated group in % of that of the vehicle group. Some doses have a count of surviving animals in place of a T/C: the source files T/C as zero there, which appears to mark a toxic dose or a test without result, not a measured value. Some survivor counts are full or nearly so, which does not show that the dose was tolerated: survival well below the control is almost never listed, so the zero probably covers shortened survival too. Survivors were counted at the toxicity check, usually on the fifth day, unless a day is given; later deaths do not show. Schedules are NCI's codes, read here as Q, the interval in days (D) or hours (H), X, the number of doses. For survival time, this PubChem deposit counts one and a half times the control or more as active, and values a quarter to a half above the control carry no call in these data; other NCI protocols may use other cut-offs. Some T/C values carry the count of animals alive at the toxicity check (mostly the fifth day); without a count, all were alive then. Some entries hold several experiments; their values stand side by side, smallest first.

In the case of `CS(=O)(=O)OCC(=O)NCC(O)CNC(=O)COS(C)(=O)=O`, the T/C reads like this: (dose: 100.0 mg/kg/injection, schedule: Q01DX009 (ip), vehicle: saline with Tween-80) 141 % of control; (dose: 100.0 mg/kg/injection, schedule: Q04DX003 (ip), vehicle: saline with Tween-80) 127 % of control; (dose: 264.0 mg/kg/injection, schedule: Q04DX003 (ip), vehicle: saline with Tween-80) 129 % of control. In addition, the survivor count is, setting by setting: (dose: 400.0 mg/kg/injection, schedule: Q01DX009 (ip), vehicle: saline with Tween-80) 5 of 6; (dose: 600.0 mg/kg/injection, schedule: Q04DX003 (ip), vehicle: saline with Tween-80) 6 of 6.
For the compound `CCC(=O)OC(C)COc1ccc(C(C)(C)C)cc1` (stereo unspecified), the T/C (dose: 600.0 mg/kg/injection, schedule: Q01DX009 (ip), vehicle: saline with Tween-80) is 125 % of control.
On to `O=c1cc(CO)[nH]cc1O`, for which the survivor count is reported as 6 of 6 (dose: 180.0 mg/kg/injection, schedule: Q01DX009 (ip), vehicle: saline with Tween-80) and 6 of 6 (dose: 266.0 mg/kg/injection, schedule: Q01DX009 (ip), vehicle: saline with Tween-80).
Take `CS(=O)(=O)OCCN(CCOS(C)(=O)=O)c1ccccc1`: the T/C was 140 % of control under setting [1] and 131 % of control (dose: 50.0 mg/kg/injection, schedule: Q04DX003 (ip), vehicle: saline). Also, under setting [2], the survivor count is recorded as 6 of 6.
For the compound `N#CCC(=O)CCCCCCCO`, the survivor count (dose: 200.0 mg/kg/injection, schedule: Q01DX001 (ip), vehicle: saline) was 6 of 6.
As to `Nc1oc([N+](=O)[O-])cc1[N+](=O)[O-]`, the survivor count (dose: 400.0 mg/kg/injection, schedule: Q01DX009 (ip), vehicle: saline) was 1 of 6.
Consider `C(=C\c1cc2ccc(C3=NCCN3)cc2[nH]1)/c1ccc(Oc2ccc(C3=NCCN3)cc2)cc1`, for which the T/C runs as follows: (dose: 6.25 mg/kg/injection, schedule: Q04DX003 (ip), vehicle: saline) 128 % of control; under setting [1], 135 % of control; (dose: 25.0 mg/kg/injection, schedule: Q04DX003 (ip), vehicle: saline) 147 % of control. For the same compound, the survivor count by setting is: (dose: 100.0 mg/kg/injection, schedule: Q04DX003 (ip), vehicle: saline) 0 of 6; (dose: 200.0 mg/kg/injection, schedule: Q04DX003 (ip), vehicle: saline) 0 of 6; (dose: 400.0 mg/kg/injection, schedule: Q04DX003 (ip), vehicle: saline) 0 of 6.
As for `c1ccc(OCC2CO2)c(OCC2CO2)c1` (stereo unspecified), the T/C was 121, 123, 128, 132 % of control (dose: 30.0 mg/kg/injection, schedule: Q01DX005 (ip), vehicle: saline with Tween-80); 120, 135 [5 of 6 alive], 137, 144 % of control (dose: 60.0 mg/kg/injection, schedule: Q01DX005 (ip), vehicle: saline with Tween-80); 143 % of control (dose: 100.0 mg/kg/injection, schedule: Q01DX005 (ip), vehicle: saline with Tween-80); 155, 161, 163, 234 % of control (dose: 120.0 mg/kg/injection, schedule: Q01DX005 (ip), vehicle: saline with Tween-80); 133 % of control (dose: 200.0 mg/kg/injection, schedule: Q01DX005 (ip), vehicle: saline with Tween-80). Besides, the survivor count reads like this: (dose: 400.0 mg/kg/injection, schedule: Q01DX005 (ip), vehicle: saline with Tween-80) 4 of 6; (dose: 480.0 mg/kg/injection, schedule: Q01DX005 (ip), vehicle: saline with Tween-80) 5 of 6.
In the case of `COC(=O)C1c2cc3c(c(O)c2CCC1(C)O)C(=O)c1c(O)cc2c(c1C3=O)OC1OC2(C)C(O)C(N(C)C)C1O` (stereo unspecified), the T/C by setting is: under setting [1], 145 % of control; (dose: 25.0 mg/kg/injection, schedule: Q01DX009 (ip), vehicle: saline) 125 % of control; (dose: 50.0 mg/kg/injection, schedule: Q01DX009 (ip), vehicle: saline) 127 % of control.
In the case of `Nc1ccc2[nH]c3cnccc3c2c1`, the survivor count (dose: 200.0 mg/kg/injection, schedule: Q01DX009 (ip), vehicle: other) is 1 of 3.
Regarding `CC1CCCCC1=C(C#N)C#N` (stereo unspecified), the survivor count (dose: 50.0 mg/kg/injection, schedule: Q01DX009 (ip), vehicle: other) was 6 of 6 and the survivor count (dose: 100.0 mg/kg/injection, schedule: Q01DX009 (ip), vehicle: other) is on record as 2 of 6.
For the compound `CN1CCc2[nH]c3ccccc3c2C1`, under “dose: 400.0 mg/kg/injection, schedule: Q04DX002 (ip), vehicle: Klucel (hydroxypropylcellulose) (HPC)”, the survivor count is recorded as 0 of 6.
As to `CC(C)=CCC(OC1OC(CO)C(O)C(O)C1O)C1=CC(=O)c2c(O)ccc(O)c2C1=O` (stereo unspecified), the survivor count (dose: 50.0 mg/kg/injection, schedule: Q04DX002 (ip), vehicle: saline with Tween-80) is 0 of 6.
In the case of `C(=C\c1ccco1)/c1ccnnc1`, the survivor count is recorded as 2 of 6 under setting [2] and 0 of 6 (dose: 200.0 mg/kg/injection, schedule: Q01DX009 (ip), vehicle: saline).

The values are drawn from PubChem BioAssay AID330 (DTP/NCI, 2004).
